Laboratory results published in PubChem BioAssay AID2711 (National Center for Advancing Translational Sciences (NCATS), 2010).
The shares of active, inactive and inconclusive entries below differ from those in the screen. Potencies of inconclusive entries are doubtful fits and often do not repeat. Active and inactive are the calls of the source. Calls come from the whole dose curve; as a rule, active = well fitted inhibition curve with a large enough effect; inconclusive = small, poorly fitted or top-dose-only effect; inactive = no such curve, though single readings can be large or run the other way.

Assay: Counterscreen for RECQ1 Inhibitors: ADP Fluorescence Polarization Displacement Assay; note: nearly all actives have a fitted effect of over 45% in size
Details: series mostly up to 228 µM; activity change, negative = inhibition: at the top concentration
Outline: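 Displacement of BODIPY Texas Red-ADP (500 nM) from RECQ1 (300 nM) was monitored by endpoint fluorescence polarization (ex 525, em 598 nm) after 15 min at room temperature. Buffer: Tris-HCl pH 8.0, MgCl2, DTT, Tween-20, poly(dI-dC).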
% is set by controls: 0 for no effect and ±100 for the full control effect; potency is the fitted concentration of half-maximal effect.

Question: Which “activity change, negative = inhibition” value does the source give for `O=C(CC(C(=O)O)P(=O)(c1ccccc1)c1ccccc1)c1ccc(Br)cc1` (configuration not stated) here?
Answer: inactive: -5.79%

Question: With `Nc1ncnc2oc(-c3ccco3)c(-c3ccco3)c12` as the molecule, how does the Potency read?
Answer: active: 39.8 µM

Question: For `CCOc1ccccc1Nc1nnc(SCC(=O)NC(Cc2c[nH]c3ccccc23)C(=O)O)s1` (configuration not stated), which Potency is on record?
Answer: inconclusive: 22.4 µM [inhibitor, partial curve, poor fit]

Question: For `O=C(O)c1cc(O)c2c(c1)[C@H]([C@H]1c3cc(C(=O)O)cc(O)c3C(=O)c3c(O[C@@H]4OC(CO)C(O)C(O)C4O)cccc31)c1cccc(O[C@@H]3OC(CO)C(O)C(O)C3O)c1C2=O` (some centres not stated), which Potency is on record?
Answer: active: 7.08 µM

Question: Which “activity change, negative = inhibition” value does the source give for `Cc1ccc(NCc2nnc(SCC(=O)O)n2Cc2ccccc2)cc1Cl` here?
Answer: inactive: 2.64%

Question: Which Potency does the source give for `O=C(O)CCCCCn1c(SCc2cc(=O)n3cc(Cl)ccc3n2)nc2ccsc2c1=O` here?
Answer: inconclusive: 63.1 µM [inhibitor, partial curve, poor fit]

Question: With `COC(=O)c1sc2ccccc2c1NC(=O)c1ccc(S(=O)(=O)N2CCCCC2C)cc1` (configuration not stated) as the molecule, how does the “activity change, negative = inhibition” value read?
Answer: inactive: -5.18%

Question: For `O=[N+]([O-])c1ccc(-c2c(O)c3ccccc3c3nc4ccccc4nc23)cc1`, which Potency is on record?
Answer: inconclusive: 44.7 µM [inhibitor, partial curve, poor fit]

Question: With `O=C(Nn1c(Cc2ccccc2)nc2ccccc2c1=O)c1c(O)c2cccc3c2n(c1=O)CCC3` as the molecule, how does the Potency read?
Answer: inconclusive: 141 µM [inhibitor, partial curve, poor fit]

Question: Which Potency does the source give for `Nc1ccc(-c2nc3ccc(-c4nc5ccc(N)cc5[nH]4)cc3[nH]2)cc1` here?
Answer: active: 28.2 µM

Question: With `Cc1csc(NC(=O)CSc2nnc(-c3ccc(S(=O)(=O)N4CCCC4)cc3)o2)n1` as the molecule, how does the “activity change, negative = inhibition” value read?
Answer: inactive: 11.4%

Question: Which “activity change, negative = inhibition” value does the source give for `O=C(CSc1n[nH]c(-c2ccc(S(=O)(=O)N3CCCCC3)cc2)n1)Nc1nccs1` here?
Answer: inactive: 25.1%

Question: For `CNC[C@H](O)c1ccc(O)c(O)c1`, which Potency is on record?
Answer: active: 14.1 µM

Question: Which Potency does the source give for `O=C(Nc1cc2c(oc1=O)CCCC2=O)c1ccc(Cl)cc1` here?
Answer: inconclusive: 39.8 µM [inhibitor, partial curve]

Question: Which Potency does the source give for `C=C1c2cccc(O)c2C(O)=C2C(=O)[C@]3(O)C(O)=C(C(N)=O)C(=O)C(N(C)C)C3C(O)C12` (some centres not stated) here?
Answer: active: 7.94 µM

Question: With `Cc1cccc(N2CCN(S(=O)(=O)c3ccc4c(c3)CCN4C(=O)CCC(=O)O)CC2C)c1` (configuration not stated) as the molecule, how does the Potency read?
Answer: inconclusive: 141 µM [inhibitor, single point]

Question: With `CCOc1ccc(/C=C(\C(=O)O)c2ccc(S(=O)(=O)N3CCOCC3)s2)cc1OC` as the molecule, how does the Potency read?
Answer: inconclusive: 1.12 µM [inhibitor, full curve, poor fit]

Question: Which Potency does the source give for `O=c1nc2s/c(=C\c3ccco3)c(=O)n2nc1Cc1ccccc1` here?
Answer: inconclusive: 89.1 µM [inhibitor, single point]

Question: With `CC(=O)OC1CCC2C3CCc4cc(O)ccc4C3CCC12C` (configuration not stated) as the molecule, how does the Potency read?
Answer: active: 8.91 µM

Question: Which Potency does the source give for `O=C(N/N=C/c1cccc(F)c1)c1cc(-c2ccco2)nc2ccccc12` here?
Answer: inconclusive: 17.8 µM [inhibitor, full curve, poor fit]

Question: Which “activity change, negative = inhibition” value does the source give for `CCn1c(SCC(=O)c2ccc(O)c(O)c2)nnc1-c1ccc(C)cc1` here?
Answer: inactive: -14.3% [at 91.9 µM]

Question: With `Cc1ccc(NC(=O)CN2C(=O)S/C(=C/c3ccc(-c4cc(C(=O)O)ccc4C)o3)C2=O)cc1C` as the molecule, how does the Potency read?
Answer: inconclusive: 17.8 µM [inhibitor, partial curve]

Question: With `COc1ccc(/C=N/NC(=O)c2nn(-c3ccccc3)c(=O)c3c(N)scc23)cc1` as the molecule, how does the Potency read?
Answer: inconclusive: 63.1 µM [inhibitor, partial curve, poor fit]

Question: With `Cc1cc(N/N=C(/CCC(=O)O)C(=O)O)nc2ccccc12` as the molecule, how does the “activity change, negative = inhibition” value read?
Answer: inactive: -12.8%

Question: Which Potency does the source give for `Cc1ccc(NC(=S)NC(=O)c2sc3ccccc3c2Cl)c(C(=O)O)c1` here?
Answer: inconclusive: 112 µM [inhibitor, partial curve]

Question: Which “activity change, negative = inhibition” value does the source give for `Cn1c(N)c(C(=O)COC(=O)CC(NC(=O)c2ccccc2Cl)c2ccccc2)c(=O)n(C)c1=O` (configuration not stated) here?
Answer: inactive: 3.54%

Question: Which “activity change, negative = inhibition” value does the source give for `COc1ccc(NC(=O)CSc2nc3ccsc3c(=O)n2CCCCCC(=O)O)cc1` here?
Answer: inactive: 12.9%

Question: Which Potency does the source give for `CC1=[N+](C)c2ccc3ccccc3c2C1(C)C` here?
Answer: active: 2.82 µM

Question: Which “activity change, negative = inhibition” value does the source give for `Oc1ccccc1-c1nnc(SCCN2CCOCC2)n1Cc1ccccc1` here?
Answer: inactive: -9.92% [at 91.9 µM]

Question: With `COc1ccc(N2Cc3cccc(C(=O)N4CCN(C(=O)c5ccco5)CC4)c3C2=O)cc1` as the molecule, how does the Potency read?
Answer: inconclusive: 56.2 µM [inhibitor, single point]

Question: With `Cc1ccc2c(c1)c1nnc(SCC(=O)N3CCCc4ccccc43)nc1n2CC(=O)O` as the molecule, how does the Potency read?
Answer: inconclusive: 10 µM [inhibitor, full curve, poor fit]

Question: Which Potency does the source give for `C=CCNC(=O)c1onc(CSc2cccc(OC)c2)c1C(=O)O` here?
Answer: inconclusive: 28.2 µM [inhibitor, partial curve, poor fit]
